# Results: PubChem BioAssay AID2685 (National Center for Advancing Translational Sciences (NCATS), 2010)
# Some of the results follow. Further columns of the screen follow, without active or inactive calls. Compounds called inactive in the main read-out are mostly missing here. Words in brackets tell the shape of the fitted curve; partial curves, single points and poor fits give uncertain potencies.
# Experiment: qHTS Assay for Lipid Storage Modulators in Drosophila S3 Cells;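 on cell number change: cells counted by Cell Tracker Red CMTPX staining in the red channel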
# Details: BODIPY lipid droplet fluorescence, 18-24 h; for cell number change: measured here: cell count max response, cells fed with added oleic acid
# In short: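 Laser-scanning cytometry quantifies lipid droplet accumulation (500–530 nm total intensity; droplet/cell object ratio) in oleic acid-fed (400 uM added) Drosophila S3 cells treated with a concentration series. 20 uM Triacsin C defined 100% inhibition.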
# [1] = measured here: cell number channel AC50, cells fed with added oleic acid
# [2] = measured here: lipid fluorescence (Fed channel) AC50, cells fed with added oleic acid
Structure (SMILES),cell number change [%],AC50 [1],AC50 [2]
CC1(C)O[C@@H]2[C@H](O1)[C@@H](CO)O[C@H]2n1ccc(=O)[nH]c1=O,-3.25,,
O=C(CS(=O)(=O)c1ccccc1)Nc1ccc(S(=O)(=O)Nc2ncccn2)cc1,-41.5,"16.4 µM [falling, partial curve]",
Cc1n[nH]c(=O)c2c1nnn2Cc1ccc(F)cc1,17.7,,
CC(C)C[C@H](NC(=O)C1CC(=O)N(c2ccc3c(c2)OCCO3)C1)C(=O)N1CCCCC1 (some centres not stated),-15.3,,
COc1ccc(NC(=S)N2CCN(CCN3C(=O)c4cccc5cccc(c45)C3=O)CC2)cc1,5.15,,
CC1CCCN(C(=O)NC2CC(=O)N(c3ccc4c(c3)OCCO4)C2)C1 (configuration not stated),2.99,,
COc1ccc(C(C)=O)c(OC(=O)c2ccc(OC)c(OC)c2)c1,,,"6.51 µM [falling, partial curve, poor fit]"
CN(C)/C=N/C(=S)Nc1ccc(F)cc1,24,"2.31 µM [rising, full curve, poor fit]",
CC(C)Oc1cccc(C(=O)C2CCCN(Cc3cnc(N4CCCC4)s3)C2)c1 (configuration not stated),-24.6,,"16.4 µM [falling, single point]"
O=C(Nc1cccc(-n2cnnn2)c1)c1ccncc1,-2.02,,"1.84 µM [rising, partial curve, poor fit]"
CC1CC(=O)c2cnc(Nc3cccc(C(F)(F)F)c3)nc2C1 (configuration not stated),6.16,,"4.11 µM [rising, single point]"
Cc1ccc(CN2CC(C(=O)NCCCSc3ccccc3)CC2=O)cc1 (configuration not stated),4.99,,
O=C(CCn1ccnc1)Nc1cc(Cl)ccc1O,10.5,,
CC(C)(C)C(=O)Nc1nnc(CSCc2ccccc2F)s1,,"2.59 µM [rising, single point]","3.26 µM [rising, partial curve, poor fit]"
COc1ccc(CNC(=O)CN(C(=O)c2csnn2)c2cccc(F)c2)cc1,14.1,,"29.1 µM [rising, single point]"
O=C(CSc1nc2ccccc2c(=O)n1-c1ccc(F)cc1F)c1c[nH]c2ccccc12,-6.97,,"3.26 µM [rising, single point]"
Cc1nn(-c2ccc(N3CCCCC3)nn2)c(C)c1CCC(=O)Nc1cccc(F)c1,12.2,"0.0651 µM [rising, full curve, poor fit]",
Cc1cc(C)nc(NS(=O)(=O)c2ccc(N3C(=O)C4CC=C(Cl)CC4C3=O)cc2)n1 (configuration not stated),-20.4,,
CCCn1nnnc1NC(=O)c1ccc2ccccc2c1,10.7,,"0.92 µM [rising, full curve]"
CCC(=O)N(C1=C(NC(C)C)C(=O)c2ccccc2C1=O)C(C)C,-45.4,"16.4 µM [falling, single point]","14.6 µM [falling, partial curve]"

Structure (SMILES),cell number change [%],AC50 [1],AC50 [2]
O=c1[nH]c2cnccc2n1-c1ccccc1,40,"20.6 µM [rising, single point]",
Cc1ccc(/C=c2\s/c(=C(/C#N)C(=O)N3CCCC3)n(Cc3ccco3)c2=O)s1,148,"9.2 µM [rising, partial curve]","29.1 µM [rising, single point]"
CNC(=O)NC(=O)CSc1ccc(NC(C)=O)cc1,12.8,,"0.146 µM [rising, full curve, poor fit]"
CC(O)CNc1nc2ccccc2n1CC(=O)NCC(F)(F)F (configuration not stated),5.49,,"14.6 µM [rising, single point]"
O=C(NC1CCCc2ccccc21)c1ccc([N+](=O)[O-])cc1 (configuration not stated),14,,"3.66 µM [rising, partial curve]"
COCCn1c(N)c(N(Cc2ccccc2)C(=O)C2CCCCC2)c(=O)[nH]c1=O,42.4,"29.1 µM [rising, single point]","29.1 µM [rising, single point]"
COc1ccc(C)cc1NC(=O)CCS(=O)(=O)c1cccc2nonc12,3.79,,"0.58 µM [rising, single point]"
O=C(CN1CCN(S(=O)(=O)c2cccs2)CC1)NCC1CCCCC1,23.8,"0.00517 µM [rising, full curve, poor fit]","0.00517 µM [rising, full curve, poor fit]"
COCCNC(=O)Cc1cn(C)c2ccccc12,-9.99,,"0.411 µM [falling, single point]"
Fc1ccccc1Cc1nnc2n1N=C(c1ccc(Cl)cc1)CS2,150,"5.8 µM [rising, full curve]",
c1ccc2c(c1)oc1c(N3CCOCC3)ncnc12,-2.56,,"29.1 µM [rising, single point]"
CCOc1cccc2sc(N(CCCN(C)C)C(=O)Cc3ccccc3)nc12,22,"0.00517 µM [falling, full curve, poor fit]","29.1 µM [rising, single point]"
CCc1ccc(-n2c(CSc3nnnn3-c3ccccc3)nc3ccccc3c2=O)cc1,70.2,"1.46 µM [rising, full curve]","0.731 µM [rising, partial curve, poor fit]"
COc1cc(CNC(=O)c2ccc3oc(C(C)C)nc3c2)cc(OC)c1,-58.8,"16.4 µM [falling, single point]","20.6 µM [falling, single point]"
COc1ccc(N(C)S(=O)(=O)c2ccc(Cl)c(C(=O)NCC(C)(C)N3CCOCC3)c2)cc1,22.5,,"8.2 µM [falling, partial curve]"
O=C(CCc1nnc2ccc(NCc3ccco3)nn12)Nc1ccc(F)cc1F,-23.3,,
CC(Sc1nncn1C)C(=O)Nc1ccc2ccccc2c1 (configuration not stated),,,"8.2 µM [falling, partial curve]"
NC(=O)/C(=C\c1ccncc1)c1cccc2ccccc12,6.04,,"0.0259 µM [rising, full curve, poor fit]"
COCCNC(=O)/C(C#N)=C/c1cc(Br)c(O)c(OC)c1,35.4,,
Cc1ccc(C(=O)COC(=O)C2CC(=O)N(c3nc(-c4ccccc4)cs3)C2)cc1C (configuration not stated),21.9,,

Structure (SMILES),cell number change [%],AC50 [1],AC50 [2]
COc1ccc(N(CC(=O)Nc2cc(Cl)ccc2OC)S(=O)(=O)c2c(C)[nH]c(=O)[nH]c2=O)cc1,-30.5,"0.58 µM [falling, partial curve, poor fit]",
CC1=NN(c2ccccc2)C(=O)/C1=C\C=C1\N(C)c2ccccc2C1(C)C,-69.3,"5.8 µM [falling, full curve]","2.91 µM [falling, full curve]"
CCNC(=O)/C(C#N)=C/c1c(N2CCCCCC2)nc2ccccn2c1=O,11.3,,
O=C(NC(=O)c1cc(OCC(F)(F)F)ccc1OCC(F)(F)F)Nc1ccccc1,12.3,,"4.11 µM [rising, partial curve, poor fit]"
COc1ccc(CCNC(=O)Cc2ccccc2)cc1OC,-1.47,,"2.91 µM [falling, single point]"
COC(=O)c1cc2oc3ccccc3c2n1Cc1ccccn1,19.3,"3.26 µM [rising, full curve, poor fit]","7.31 µM [rising, single point]"
Cc1cccc(C)c1NC(=O)CN(C)C(=O)CC1Sc2ccccc2NC1=O (configuration not stated),39.1,"2.59 µM [rising, partial curve, poor fit]","2.59 µM [rising, partial curve]"
Cc1ccc(-c2nn3c(C)nnc3c3ccccc23)cc1S(=O)(=O)NC(C)(C)CO,-29.6,,"18.4 µM [falling, single point]"
COC(=O)c1sccc1NC(=O)C1CC2CCC1C2 (configuration not stated),-27.4,,
Cc1c(C(=O)Nc2ccc(C(=O)Nc3ccccc3)cc2)cccc1[N+](=O)[O-],51.7,"14.6 µM [rising, partial curve]",
CO/N=C/c1ccc(Sc2ccccc2N)c([N+](=O)[O-])c1,-18,,"7.31 µM [rising, partial curve]"
O=C(NC(=Nc1nc2ccccc2o1)NC(=O)c1ccccc1)c1ccccc1,10.3,,"0.259 µM [rising, full curve, poor fit]"
CNC(=O)c1c(NC(=O)CCS(=O)(=O)c2ccccc2)sc(C)c1C,30.2,"6.51 µM [rising, partial curve, poor fit]","3.66 µM [rising, full curve]"
COc1ccccc1CN1CC(C(=O)NCCCc2ccc(F)cc2)CCC1=O (configuration not stated),-15.2,,"18.4 µM [falling, single point]"
Cc1cccc(C)c1OCC(=O)N/N=C/c1cc2c(cc1[N+](=O)[O-])OCO2,6.42,,"1.16 µM [rising, full curve, poor fit]"
CNC(=O)OCc1cccc(COC(=O)NC)n1,-1.79,,"6.51 µM [falling, single point]"
COc1cc(/C=N/O)c(Br)cc1OCC(=O)Nc1ccccc1C,8.31,,
O=C(Nc1ccccc1N1CCCC1)c1ccco1,8.74,,"25.9 µM [rising, single point]"
CC(OC(=O)c1ccc(Cl)nc1)C(=O)N1CCc2ccccc21 (configuration not stated),-33.2,"0.146 µM [falling, full curve, poor fit]","1.46 µM [falling, full curve, poor fit]"
O=C(COc1cccc2ccccc12)NNC(=O)[C@@H]1CCCC[C@@H]1C(=O)O,36.7,"29.1 µM [rising, single point]","6.51 µM [rising, single point]"

# An excerpt from above in order of count of non-hydrogen atoms, smallest number first:
Structure (SMILES),cell number change [%],AC50 [1],AC50 [2]
CNC(=O)OCc1cccc(COC(=O)NC)n1,-1.79,,"6.51 µM [falling, single point]"
COC(=O)c1sccc1NC(=O)C1CC2CCC1C2 (configuration not stated),-27.4,,
COC(=O)c1cc2oc3ccccc3c2n1Cc1ccccn1,19.3,"3.26 µM [rising, full curve, poor fit]","7.31 µM [rising, single point]"
CC1=NN(c2ccccc2)C(=O)/C1=C\C=C1\N(C)c2ccccc2C1(C)C,-69.3,"5.8 µM [falling, full curve]","2.91 µM [falling, full curve]"
Cc1c(C(=O)Nc2ccc(C(=O)Nc3ccccc3)cc2)cccc1[N+](=O)[O-],51.7,"14.6 µM [rising, partial curve]",
